Results on three sequences are retold here after publication PMC10693550, “Programmable de novo designed coiled coil-mediated phase separation in mammalian cells” (Nature Communications, 2023).

No end group written: not given here.

The data set deals with complementary peptide. Nature of the data set: Isothermal titration calorimetry (ITC) of orthogonal CC peptide pairs. The class given is binding. Particulars: 50 mM Tris pH 7.5, 150 mM NaCl, 1 mM TCEP. As to the method: MicroCal PEAQ-ITC (Malvern) was used to measure the equilibrium dissociation constant (Kd) of orthogonal CC pairs. A 40-µl injection syringe was filled with the peptide solution (1 mM P5f, P13f; 5.6 mM S1h or 5.4 mM S3h) in 50 mM Tris pH of 7.5, 150 mM NaCl, and 1 mM TCEP. The samples were injected into an ITC cell (volume 200 µl) filled with a complementary peptide (100 µM P6f or P14f and 560 µM S2h or 540 µM S4h) in a matching buffer through a 19-step process. The injection volumes were 2 µl and were spaced 120 s apart, except for the first priming injection of 0.4 µl with 150 s spacing. Raw thermograms were integrated with the software NITPIC[83], interaction analysis was done with SEDPHAT[84], and titration curves were visualized with a companion GUSSI software. Monte Carlo simulation for non-linear regression, aligning the model function with experimental values 1000 times was used to obtain uncertainties in the fitted model.
Supplementary Figure 2: Binding analysis between the weak 3-heptad and strong 4-heptad CC forming segment using isothermal titration calorimetry (ITC). a) For peptide pair S1h + S2h peptide concentration in 40 µl injection syringe was 5.6 mM for S1h and concentration of complementary peptide S2h in ITC cell (volume 200 µl) was 560 […]
concentration in 40 µl injection syringe was 5.4 mM S3h and concentration of complementary peptide S4h in ITC cell (volume 200 µl) was 540 µM.
± 0.5 kcal/mol. For peptide pair c) P5f + P6f and d) P13f + P14f, which are 4-heptad CC.
Peptide concentration in 40 µl injection syringe was 1 mM for P5f and P13f and concentration […]
± 0.5 µM and ΔH -13.7 +- 0.6 kcal/mol and d) Kd 2.3 ± 0.2 µM and ΔH -14.7 ± 0.6 kcal/mol.
All the peptides were dissolved in a matching buffer 50 mM Tris pH of 7.5, 150 mM NaCl, […]
(1 picture or pasted object on this page, not shown here)
Turning to EIAALEEENAALEQKIAALKE [S3h-S4h], the ΔH is -11.1 ± 0.5 kcal/mol.
The value for KIAALKEEIAALEQKNAALKE [S1h-S2h] was -22.4 ± 1.4 kcal/mol; that for “KIAALKEEIAALEQKNAALKEENAALEA [P13f-P14f]” was -14.7 ± 0.6 kcal/mol.
